Here are results for 1 substance from PMC10984095.

Sequences of proteins named here, by UniProt entry; tags and fusion partners are left off. Residues count along the entry.
UniProt P37173, residues 23-567: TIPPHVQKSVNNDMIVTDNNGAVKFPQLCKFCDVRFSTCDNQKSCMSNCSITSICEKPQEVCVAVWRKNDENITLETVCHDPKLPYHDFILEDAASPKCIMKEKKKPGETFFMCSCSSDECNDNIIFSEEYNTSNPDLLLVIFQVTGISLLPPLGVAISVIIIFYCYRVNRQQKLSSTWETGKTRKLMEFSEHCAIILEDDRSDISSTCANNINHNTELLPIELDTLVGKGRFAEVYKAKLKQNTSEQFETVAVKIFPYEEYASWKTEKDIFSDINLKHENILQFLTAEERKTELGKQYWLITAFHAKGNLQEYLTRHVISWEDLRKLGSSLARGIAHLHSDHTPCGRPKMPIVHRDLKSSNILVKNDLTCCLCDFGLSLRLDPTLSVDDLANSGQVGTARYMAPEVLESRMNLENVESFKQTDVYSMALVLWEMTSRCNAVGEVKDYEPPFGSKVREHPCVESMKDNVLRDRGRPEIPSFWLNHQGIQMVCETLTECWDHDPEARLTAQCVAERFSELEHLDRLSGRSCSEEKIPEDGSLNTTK
UniProt Q61025: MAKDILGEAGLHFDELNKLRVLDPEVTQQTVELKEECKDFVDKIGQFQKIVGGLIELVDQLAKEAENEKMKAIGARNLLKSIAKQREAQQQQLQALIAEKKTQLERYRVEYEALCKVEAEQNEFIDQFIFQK

Results are given in words; binding and its absence hold for the method and conditions named. In cells and extracts the contact can be indirect. Some binding calls cover weakened binding; strength is not graded here.

The target in the test is TGF-β receptor type II (TβRII), flag-tagged (UniProt P37173). The test is described as follows: co-IP; GFP-IFT20 and/or flag-TβRII transfected in primary osteoblasts; which tag was precipitated is not told.

Turning to “intraflagellar transport 20 (IFT20), GFP-tagged (from UniProt Q61025 1-132)”, the binding entry is given as “binds”.
